Experiment in all cases: two-hybrid
Test [1] addresses T1, male-specific lethal (MSL)1 (Drosophila) (UniProt P50535).
T1 sequence: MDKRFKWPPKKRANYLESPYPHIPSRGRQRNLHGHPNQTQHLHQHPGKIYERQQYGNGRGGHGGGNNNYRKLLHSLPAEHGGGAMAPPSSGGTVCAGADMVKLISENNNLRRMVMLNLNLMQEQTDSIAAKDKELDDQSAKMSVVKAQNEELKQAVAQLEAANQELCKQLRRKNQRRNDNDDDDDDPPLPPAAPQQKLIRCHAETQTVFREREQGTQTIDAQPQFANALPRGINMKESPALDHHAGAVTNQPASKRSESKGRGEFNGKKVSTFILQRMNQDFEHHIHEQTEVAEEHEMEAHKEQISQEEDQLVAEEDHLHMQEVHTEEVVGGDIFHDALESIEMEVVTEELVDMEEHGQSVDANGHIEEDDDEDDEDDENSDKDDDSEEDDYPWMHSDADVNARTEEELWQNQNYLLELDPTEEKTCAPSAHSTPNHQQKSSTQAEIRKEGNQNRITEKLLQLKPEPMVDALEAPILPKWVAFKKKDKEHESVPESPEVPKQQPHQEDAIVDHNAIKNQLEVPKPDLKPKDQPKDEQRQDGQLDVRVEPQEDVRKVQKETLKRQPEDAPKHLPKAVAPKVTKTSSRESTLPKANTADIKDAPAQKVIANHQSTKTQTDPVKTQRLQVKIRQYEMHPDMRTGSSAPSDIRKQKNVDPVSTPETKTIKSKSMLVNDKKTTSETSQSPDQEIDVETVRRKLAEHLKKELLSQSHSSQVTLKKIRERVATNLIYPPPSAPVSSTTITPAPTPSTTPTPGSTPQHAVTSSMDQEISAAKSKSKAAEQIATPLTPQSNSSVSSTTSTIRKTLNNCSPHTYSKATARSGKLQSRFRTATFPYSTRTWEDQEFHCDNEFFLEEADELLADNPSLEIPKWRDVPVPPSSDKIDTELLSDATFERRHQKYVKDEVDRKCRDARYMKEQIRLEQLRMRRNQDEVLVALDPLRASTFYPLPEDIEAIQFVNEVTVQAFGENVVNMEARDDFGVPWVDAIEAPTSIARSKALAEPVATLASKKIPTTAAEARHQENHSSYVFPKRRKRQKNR

The chains behind the UniProt entries cited, without tags or fusion partners.
UniProt P19538: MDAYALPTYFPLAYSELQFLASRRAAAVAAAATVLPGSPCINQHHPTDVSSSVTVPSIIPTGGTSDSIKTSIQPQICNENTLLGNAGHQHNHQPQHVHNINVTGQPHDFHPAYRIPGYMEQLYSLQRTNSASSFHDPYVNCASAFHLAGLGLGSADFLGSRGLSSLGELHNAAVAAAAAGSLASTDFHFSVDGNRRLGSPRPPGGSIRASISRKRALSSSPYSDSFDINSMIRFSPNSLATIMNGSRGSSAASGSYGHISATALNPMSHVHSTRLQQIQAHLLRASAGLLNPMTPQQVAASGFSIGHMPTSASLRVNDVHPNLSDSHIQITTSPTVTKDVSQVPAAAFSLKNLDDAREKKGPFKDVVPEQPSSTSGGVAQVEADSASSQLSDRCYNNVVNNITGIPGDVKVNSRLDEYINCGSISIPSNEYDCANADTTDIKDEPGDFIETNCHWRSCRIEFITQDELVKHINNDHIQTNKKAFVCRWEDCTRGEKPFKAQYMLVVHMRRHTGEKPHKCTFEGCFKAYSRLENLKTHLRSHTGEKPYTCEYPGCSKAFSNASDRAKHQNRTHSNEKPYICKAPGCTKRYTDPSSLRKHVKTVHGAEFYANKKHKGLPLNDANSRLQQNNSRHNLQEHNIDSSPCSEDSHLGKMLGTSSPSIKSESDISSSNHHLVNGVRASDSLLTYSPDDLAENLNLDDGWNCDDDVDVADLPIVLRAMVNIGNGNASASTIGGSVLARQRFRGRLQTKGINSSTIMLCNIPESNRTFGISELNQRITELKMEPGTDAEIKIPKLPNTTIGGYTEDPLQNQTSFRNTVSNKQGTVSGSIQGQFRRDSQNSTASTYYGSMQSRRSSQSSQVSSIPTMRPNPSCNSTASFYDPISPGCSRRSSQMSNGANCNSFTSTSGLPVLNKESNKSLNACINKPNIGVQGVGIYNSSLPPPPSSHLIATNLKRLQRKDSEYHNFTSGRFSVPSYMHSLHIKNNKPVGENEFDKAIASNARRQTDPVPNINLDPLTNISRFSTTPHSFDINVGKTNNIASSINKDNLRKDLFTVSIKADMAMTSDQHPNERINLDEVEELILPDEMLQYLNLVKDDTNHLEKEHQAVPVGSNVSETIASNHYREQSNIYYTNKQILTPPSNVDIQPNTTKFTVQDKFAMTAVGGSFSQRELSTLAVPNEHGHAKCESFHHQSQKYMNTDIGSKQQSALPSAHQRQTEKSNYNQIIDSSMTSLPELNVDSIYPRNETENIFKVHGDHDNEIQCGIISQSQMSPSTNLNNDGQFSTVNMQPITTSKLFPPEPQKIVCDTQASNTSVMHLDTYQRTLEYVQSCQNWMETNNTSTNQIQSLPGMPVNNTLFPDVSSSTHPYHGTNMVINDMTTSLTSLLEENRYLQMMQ
UniProt P07247: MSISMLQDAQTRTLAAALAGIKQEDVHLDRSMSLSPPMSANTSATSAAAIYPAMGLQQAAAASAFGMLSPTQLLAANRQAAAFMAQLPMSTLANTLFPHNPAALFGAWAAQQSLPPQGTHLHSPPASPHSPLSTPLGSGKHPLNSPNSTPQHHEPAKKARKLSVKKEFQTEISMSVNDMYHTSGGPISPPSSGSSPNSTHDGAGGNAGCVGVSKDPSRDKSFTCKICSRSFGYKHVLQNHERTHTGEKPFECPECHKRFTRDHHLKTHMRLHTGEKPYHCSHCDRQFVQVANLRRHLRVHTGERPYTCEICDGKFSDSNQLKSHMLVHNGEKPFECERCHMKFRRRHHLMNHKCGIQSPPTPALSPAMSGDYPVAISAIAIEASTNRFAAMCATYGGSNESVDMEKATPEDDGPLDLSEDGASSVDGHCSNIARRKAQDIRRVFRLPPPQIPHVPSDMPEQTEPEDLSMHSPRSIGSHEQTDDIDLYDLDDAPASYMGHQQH
UniProt P23803: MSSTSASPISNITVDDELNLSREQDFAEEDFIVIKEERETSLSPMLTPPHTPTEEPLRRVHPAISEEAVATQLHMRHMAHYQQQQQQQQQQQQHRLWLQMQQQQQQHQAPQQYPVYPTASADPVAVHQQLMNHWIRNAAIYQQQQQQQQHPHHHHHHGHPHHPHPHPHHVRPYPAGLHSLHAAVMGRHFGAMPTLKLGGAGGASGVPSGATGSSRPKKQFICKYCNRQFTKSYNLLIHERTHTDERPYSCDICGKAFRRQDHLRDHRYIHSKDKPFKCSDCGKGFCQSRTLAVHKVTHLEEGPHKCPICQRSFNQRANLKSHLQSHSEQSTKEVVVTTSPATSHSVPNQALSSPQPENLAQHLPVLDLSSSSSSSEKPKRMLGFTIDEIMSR

Test [2] addresses 178-aa N-terminal region of MSL1 with the N-terminal 15-aa region deleted (Drosophila) (UniProt P50535).
Test [3] deals with T2, 178-aa N-terminal region of MSL1 (Drosophila) (UniProt P50535).
T2 sequence: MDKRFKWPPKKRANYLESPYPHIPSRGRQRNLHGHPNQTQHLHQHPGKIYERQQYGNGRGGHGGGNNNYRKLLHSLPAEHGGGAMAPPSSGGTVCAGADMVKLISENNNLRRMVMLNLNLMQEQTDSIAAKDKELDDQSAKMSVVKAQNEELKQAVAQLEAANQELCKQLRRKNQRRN

No constants are given. Whether binding was seen depends on the method and setting. For some of these results: Binding calls can cover weak binding; strength is not graded here.

In the case of CG30020 (Drosophila), the binding result in test [1] is reported as “binds”.

For Ci (from UniProt P19538 1-1397), the binding result in test [2] is listed as “no binding”.

Regarding Jim (Drosophila), in test [1], the binding result is “binds”.

Kruppel (from UniProt P07247 1-502): in test [2], the binding result is reported as “no binding”.

With Odd (from UniProt P23803 1-392), the binding entry in test [2] is “no binding”.

As for Row (Drosophila), the binding result in test [3] and in test [1] was “binds” throughout.

The values above are taken from doi:10.1101/2020.11.11.378323.
